{"source": "PubChem BioAssay AID1159584 (Peter MacCallum Cancer Centre, 2016)", "test": "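Genes that CDH1-null MCF10A cells selectively depend on to survive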 (primary screen)", "cell system": "human MCF10A breast epithelial cells, parental and CDH1-null", "knock-down reagent": "siRNA against human genes", "measurement": "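ATP luminescence (CellTiter-Glo) viability per line relative to mean mock wells over all plates, and the ratio of CDH1-null to parental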", "reading the numbers": "CDH1-null / parental viability ratio: higher = CDH1-null cells survive relatively better than parental", "note": "In all, the deposit lists about 18,000 reagents; below is an unselected part. Not all columns of the deposit are shown. No sequences are given here. The record does not give: the amount of reagent, the time to read-out."}
{"target": "KAT5 (lysine acetyltransferase 5)", "CDH1-null / parental viability ratio": 1.16}
{"target": "OXT (oxytocin/neurophysin I prepropeptide)", "CDH1-null / parental viability ratio": 0.85}
{"target": "RAB9B (RAB9B, member RAS oncogene family)", "CDH1-null / parental viability ratio": 0.93}
{"target": "RAB7B (RAB7B, member RAS oncogene family)", "CDH1-null / parental viability ratio": 1.08}
{"target": "FIGNL2 (fidgetin like 2)", "CDH1-null / parental viability ratio": 1.09}
{"target": "DNAH8 (dynein axonemal heavy chain 8)", "CDH1-null / parental viability ratio": 0.91}
{"target": "ZMYM5 (zinc finger MYM-type containing 5)", "CDH1-null / parental viability ratio": 0.99}
{"target": "ZNF790 (zinc finger protein 790)", "CDH1-null / parental viability ratio": 0.92}
{"target": "OR10G9 (olfactory receptor family 10 subfamily G member 9)", "CDH1-null / parental viability ratio": 0.9}
{"target": "CHI3L1 (chitinase 3 like 1)", "CDH1-null / parental viability ratio": 1.14}
{"target": "CT45A1 (cancer/testis antigen family 45 member A1)", "CDH1-null / parental viability ratio": 1.03}
{"target": "MTAP (methylthioadenosine phosphorylase)", "CDH1-null / parental viability ratio": 1.02}
{"target": "KIAA0930", "CDH1-null / parental viability ratio": 1.17}
{"target": "FAM120C (family with sequence similarity 120 member C)", "CDH1-null / parental viability ratio": 0.88}

2 entries from above, reformatted.
| target | CDH1-null / parental viability ratio |
| --- | --- |
| OXT (oxytocin/neurophysin I prepropeptide) | 0.85 |
| RAB9B (RAB9B, member RAS oncogene family) | 0.93 |
